# In all, about 360,000 compounds went through this assay and about 9,100 (2.5%) were called active. This list was built around the results that the source calls inconclusive (neither active nor inactive); the mix of calls is not that of the screen. No stated cut-off is given here; in the data, active means max response below about -50%; inconclusive means no clear call, values can overlap the other calls; inactive means above that.
# Amino acid sequences for entries named in this document (tags omitted).
# UniProt P35462, whole entry, looked up: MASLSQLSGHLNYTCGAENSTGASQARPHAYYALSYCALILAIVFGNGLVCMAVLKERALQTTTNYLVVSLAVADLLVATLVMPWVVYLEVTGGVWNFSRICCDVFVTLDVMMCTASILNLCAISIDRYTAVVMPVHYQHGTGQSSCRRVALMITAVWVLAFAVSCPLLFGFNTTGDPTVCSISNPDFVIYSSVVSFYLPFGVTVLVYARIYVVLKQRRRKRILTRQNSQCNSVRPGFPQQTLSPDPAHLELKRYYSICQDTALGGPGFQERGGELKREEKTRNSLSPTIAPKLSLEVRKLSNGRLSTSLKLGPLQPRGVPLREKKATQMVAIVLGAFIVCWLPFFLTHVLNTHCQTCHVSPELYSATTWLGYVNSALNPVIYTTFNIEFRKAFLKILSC
# Target: D(3) dopamine receptor (Homo sapiens) (UniProt P35462)
# Assay: qHTS of D3 Dopamine Receptor Antagonist: qHTS
# Conditions: D3R cells, DiscoveRx beta-arrestin luminescence, antagonist mode; active compounds read low
# How it was run: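 Cells expressing the human receptor were seeded at 1500 cells/well, incubated overnight at 37 degrees C in 5% CO2, then exposed to library compounds with dopamine controls for 90 minutes at 37 degrees C before luminescent detection.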
# On the % scale 0 is the no-effect control and ±100 the full control effect.
row,SMILES,"max response, negative = inhibition"
1,CN(C)CCOc1ccccc1C(C)(C)C,inconclusive: -45.6%
2,O=C(Nc1cccc(S(=O)(=O)N2CCCCCC2)c1)c1cncc(Br)c1,inactive: 14.8%
3,COc1ccc(-c2[nH]ncc2CNC(C)c2ccccc2Cl)cc1F (stereo not given),inactive: -20.2%
4,COC(=O)C1CCN(Cc2ccc(C)cc2)CC1,inconclusive: -34.2%
5,CCOC(=O)c1c(N)sn(-c2ccccc2C)c1=S,inconclusive: -36.4%
6,CCCCOc1ccc(OCCNC(=O)c2ccco2)cc1,inactive: 5.43%
7,CCC(Sc1nccn1C)C(=O)Nc1nnc(C)s1 (stereo not given),inconclusive: -35.3%
8,O=C(CN1CCc2ccccc2C1)Nc1ccccc1N1CCCCCC1,active: -53.9%
9,OCCCN1CCN(CCCOc2ccccc2-c2ccccc2)CC1,inconclusive: -35.8%
10,CN(C)CCCOc1ccc(Cl)cc1Br,inconclusive: -42.8%
11,CC1Nc2ncnc(N3CCN(c4ccccc4)CC3)c2N(Cc2ccccc2)C1=O (stereo not given),active: -110%
12,O=C(CN1CCCC1)Nc1ccc(NC(=O)Nc2ccccc2Cl)cc1,inactive: -13.4%
13,COC(=O)c1cccc(N2C(=O)C(Cl)=C(N3CCOCC3)C2=O)c1,inactive: 3.81%
14,CN(C)S(=O)(=O)c1cccc(NC(=O)Cc2ccsc2)c1,inconclusive: -30.9%
15,CC1CN(S(=O)(=O)c2cccc(C(=O)OCc3cc(=O)oc4cc(O)ccc34)c2)CC(C)O1 (stereo not given),active: -55.9%
16,O=C1C=C(NCc2ccccc2)CCC1,inactive: 10.9%
17,Cn1ncc(=S)[nH]c1=S,inconclusive: -33.8%
18,CCc1cc(=O)oc2cc(OCC(=O)N3CCCc4ccccc43)ccc12,inconclusive: -49.6%
19,CC1(C)CC(=O)C2=C(C1)N(c1ccccc1)C(N)=C(C#N)C2c1ccccc1 (stereo not given),inactive: 19%
20,CC(C)[C@@H]1CN=C(N)N1C[C@@H]1CCCN1C[C@H](C)N1C[C@@H](Cc2ccccc2)N(CCc2ccc(Cl)c(Cl)c2)C1=N,active: -59.5%
21,CCC(Cc1ccccc1)NC(=O)CSc1ccsc1[N+](=O)[O-] (stereo not given),inconclusive: -40.3%
22,CCCCNC(=O)C(=O)N/N=C/c1ccc(C(=O)OC)cc1,inconclusive: -33.2%
23,CCOC(=O)C1=CN(Cc2cccc(F)c2)S(=O)(=O)N(CC)C1c1ccc(Br)cc1F (stereo not given),inconclusive: -40.9%

# Single values from the list.
# Value of CC1CN(S(=O)(=O)c2cccc(C(=O)OCc3cc(=O)oc4cc(O)ccc34)c2)CC(C)O1 (stereo not given) under max response, negative = inhibition: active: -55.9%
# Value of CC1Nc2ncnc(N3CCN(c4ccccc4)CC3)c2N(Cc2ccccc2)C1=O (stereo not given) under max response, negative = inhibition: active: -110%
# Value of CCCCOc1ccc(OCCNC(=O)c2ccco2)cc1 under max response, negative = inhibition: inactive: 5.43%
# Value of OCCCN1CCN(CCCOc2ccccc2-c2ccccc2)CC1 under max response, negative = inhibition: inconclusive: -35.8%

# Remaining list, next part

row,SMILES,"max response, negative = inhibition"
1,COc1ccc(CNCc2ccc3ccccc3c2)c(OC)c1,inconclusive: -34.2%
2,COc1ccccc1CNC(=O)Cn1c(=O)c2cccn2c2cccnc21,inconclusive: -41.9%
3,NNC(=O)c1[nH]c2ccccc2c1-c1ccccc1,inconclusive: -32%
4,CCCN1CCN(CCCNC(=O)CN2C(=O)C(CC)Oc3ccccc32)CC1 (stereo not given),inactive: -2.02%
5,COc1ccc(NC(=O)c2nc(S(=O)(=O)Cc3cccc(C)c3)ncc2Cl)c(OC)c1,active: -116%
6,Cc1ccnc(N2CCC(C(=O)Nc3ccc4c(c3)OCO4)CC2)n1,inconclusive: -47.2%
7,C=CCSc1n[nH]c(-c2ccc(OCCCC)cc2)n1,inactive: 13.5%
8,COc1ccc(O)c(C2=Nc3ccccc3N=C(c3ccccc3)C2)c1,inactive: -16.6%
9,CCCCC(c1nnnn1CC1CCCO1)N1CCN(c2ccccc2)CC1 (stereo not given),inactive: 7.7%
10,C=C1C(=O)O[C@H]2[C@H]1[C@@H](O)CC(=C)[C@@H]1CC(=O)[C@@H](C)[C@H]21,inconclusive: -47.7%
11,CC(=O)Nc1nc(-c2ccc(Cl)cc2)nc(C)c1C(C)=O,inconclusive: -38.7%
12,CCCNc1ncc2c(=O)[nH][nH]c(=O)c2n1,inconclusive: -31.3%
13,CSc1nc(-c2ccc(C)cc2)[nH]c1S(=O)(=O)c1ccccc1,inconclusive: -41.7%
14,CCN(CC)S(=O)(=O)c1ccc(C(=O)NCCCN=C2NS(=O)(=O)c3ccccc32)cc1,inconclusive: -42.2%
15,Cc1cc(Cl)cc(C)c1OCCOCCNCc1ccccc1,active: -79.6%
16,Cc1ccnc(NC(=O)C2CCN(S(=O)(=O)c3cccc4nonc34)CC2)c1,inconclusive: -49.8%
17,CC12CCC(=O)N1C(C(=O)NNC(=O)c1ccc(Br)cc1)CS2 (stereo not given),inactive: -3.15%
18,Cc1ccc2c(c1)N(C(=O)CCC(=O)N1CCc3ccccc3C1)CCO2,inconclusive: -37%
19,CCC(=O)N1CCc2cc(Br)cc(S(=O)(=O)N3CCCCCC3)c21,active: -64.2%
21,CCOC(=O)C1CCCN(Cc2ccc(OC)cc2OC)C1 (stereo not given),active: -51.6%
22,CCOC(=O)c1c(C)[nH]c(C)c1C(=O)COC(=O)c1cccnc1SC,inconclusive: -36.2%
23,Nc1ccccc1Nc1ccccc1,inconclusive: -30.4%

row,SMILES,"max response, negative = inhibition"
1,CC1CC(C)CN(C(=O)C2CC(=O)N(c3ccc4c(c3)OCCO4)C2)C1 (stereo not given),inactive: 6.31%
2,CCOC(=O)C1CCN(C(c2ccccn2)c2c(C)[nH]c3ccccc23)CC1 (stereo not given),inconclusive: -45%
3,CN(CC(=O)Nc1ccccc1Cl)CC(=O)N1CCc2ccccc21,inconclusive: -37.9%
4,Cc1ccc(C)c(C(=O)COc2ccccc2[N+](=O)[O-])c1,inactive: -23.5%
5,N#Cc1ccsc1NC(=O)COc1ccc(-c2nnco2)cc1,inconclusive: -34.2%
6,CCOc1ccc(NC(=O)CSC(N)=O)cc1,active: -72.3%
7,Cc1ccc2nc3sc(C(=O)N4CCCc5ccccc54)c(N)c3cc2c1,inconclusive: -30.3%
8,NC(=O)NC(=O)COC(=O)c1cccnc1Nc1ccccc1F,inactive: -4.28%
9,CC(=O)O[C@]1(C(C)=O)CC[C@H]2[C@@H]3C=C(Cl)C4=CC(=O)CC[C@]4(C)[C@H]3CC[C@@]21C,inactive: 23.5%
10,COc1cc(C2(c3ccc(O)c(OC)c3)C(=O)Nc3c(Br)cc(Br)cc32)ccc1O,inactive: -12.4%
11,CCN(CC)c1nc(C)c(C(=S)Nc2cc([N+](=O)[O-])ccc2Cl)s1,inconclusive: -38.9%
12,COc1ccccc1-c1csc(C(O)(c2ccccc2)C(F)(F)F)n1 (stereo not given),inactive: -2.21%
13,c1cncc(-c2nc(-c3ccco3)cs2)c1,active: -63.1%
14,COC(=O)C(C#N)C(=C1C(=O)CC(C)(C)CC1=O)c1ccc(O)cc1 (stereo not given),inconclusive: -38.6%
15,CC1(Cc2ccc(Cl)cc2)C(=O)Nc2ccc(-c3cccnc3)cc21 (stereo not given),inconclusive: -33.9%
16,CN(C)c1cccc(C(=O)Nc2cccc(F)c2)c1,inactive: -0.621%
17,S=c1[nH]nc(-c2cc(-c3ccccc3)n[nH]2)n1/N=C/C(Br)=C/c1ccccc1,active: -66.7%
18,N#Cc1ccccc1CSC1=NCCS1,inactive: -10.6%
19,COC(=O)CN1C(=S)N(c2ccc(F)cc2)C(=O)C1CC(=O)Nc1ccc(F)cc1 (stereo not given),inconclusive: -38%
20,Cc1csc(SCCn2c(N3CCN(c4ccccc4)CC3)nc3c2c(=O)[nH]c(=O)n3C)n1,inactive: 31%
21,COCCNC(=O)c1ccc(CN2CCc3ccccc3C2)cc1,inconclusive: -41%
22,O=S(=O)(CCNC1CC1)NC1CCCCC1,inactive: -6.65%
23,COCCCNC(=O)c1ccc2c3c(onc13)-c1ccccc1C2=O,inconclusive: -46.1%

# Quoted at random: 2 entries already listed, in no set order.
row,SMILES,"max response, negative = inhibition"
7,C=CCSc1n[nH]c(-c2ccc(OCCCC)cc2)n1,inactive: 13.5%
17,Cn1ncc(=S)[nH]c1=S,inconclusive: -33.8%

# (next part)

row,SMILES,"max response, negative = inhibition"
1,O=C(c1cc(-c2ccncc2)nc2ccccc12)N1CCN(Cc2ccccc2)CC1,inactive: 51.8%
2,Oc1ccc(C[C@H]2CN([C@@H](Cc3cccc(O)c3)CN3CCC[C@@H]3CN3C(=S)NC[C@@H]3Cc3ccccc3)C(=S)N2CC2CCCCC2)cc1,inconclusive: -43.1%
3,COc1ccccc1CN(Cc1cc2cc(C)ccc2[nH]c1=O)Cc1nnnn1CC1CCCO1 (stereo not given),inconclusive: -30.2%
4,COc1ccc(S(=O)(=O)N2CCC(C(=O)N3CCc4ccccc4C3)CC2)cc1,inactive: -9.17%
5,Cc1nn(C)c(C)c1S(=O)(=O)N(CC(=O)NCCCN1CCC(C)CC1)c1ccc(C(C)C)cc1,inconclusive: -44.3%
6,CCN(CC)C(=O)Nc1ccc(C(=O)OC)cc1,active: -69%
7,CC(C)C[C@H]1CN=C(Nc2ccccc2)N1CCC(C)c1ccccc1 (stereo not given in full),inactive: 0%
8,COc1cc2sc3cc(NCC[C@@H]4CCCN4C)ccc3c(=O)c2cc1OC,inactive: 6.33%
9,O=C(Nc1ccn(CCCNCc2cccc3ccccc23)c(=O)n1)OCc1ccccc1,active: -50.6%
10,Cc1ccc(C(=O)c2cc3ccccc3o2)cc1[N+](=O)[O-],inconclusive: -33.7%
11,CSCCOC(=O)C1=C(C)Nc2ccc(C)cc2S1,inconclusive: -35.7%
12,Nn1c(CSc2nc3ccccc3o2)nnc1CSc1nc2ccccc2o1,inconclusive: -38.8%
13,COC(=O)[C@@H](Cc1ccccc1)NC(=O)NCCc1ccc(OC)c(OC)c1,inactive: 1.87%
14,COc1cc(C)c(Cl)cc1S(=O)(=O)NCc1ccccn1,inconclusive: -34.3%
15,Clc1ccc(OCc2nnc3n2N=C(c2ccc4c(c2)OCCO4)CS3)c(Cl)c1,inconclusive: -36.6%
16,COC(=O)c1ccc2nc(-c3ccc(OC)c(OC)c3)c(Cc3cccc(F)c3)n2c1,inactive: 18.3%
17,COc1ccc(-c2cc(C)no2)cc1S(=O)(=O)Nc1ccccc1,inconclusive: -36.8%
18,CCOC(=O)C1(CC2CC2)CCN(Cc2ccc3cccc(F)c3n2)CC1,active: -95.6%
19,CCCC1=Nc2cc(C(=O)NCc3ccco3)ccc2Sc2ccccc21,inconclusive: -31.1%
20,C/C(=N\OC(=O)c1ccccc1)c1c(C)nc2cc(C)ccn12,inconclusive: -38.7%
21,O=[N+]([O-])c1ccc(SNc2ccccc2)c([N+](=O)[O-])c1,inactive: -17.9%
